Test results published in patent US7323260B2, “Lubricant, recording medium and carboxylic acid compound” (Sony Corporation, priority 2003, dated 2008).
Some entries share one result that the patent states for a list of compounds. At least one compound was matched to its structure with a doubt left.

Assay: Evaluation of solubility in solvent
Format: physicochemical
Design: key: ◯: lubricant is easily soluble in each solvent; x: lubricant is insoluble in solvent
Conditions: Table 10
Experimental: Solubility of lubricants which were used in Examples 1 to 11 and Comparative Example 3 in each of ethanol, acetone and toluene was evaluated. Evaluation results of solubility of the lubricants are shown in Table 10 by evaluation criteria as defined as follows: […]
Solubility of lubricants which were used in Examples 21 to 37 in each of ethanol, acetone and toluene was evaluated. Evaluation results of solubility of lubricants are shown in Table 19 by evaluation criteria as defined as follows: […]

O=C(O)CC(OC(=O)CCCCCCCCCCC(F)(F)C(F)(F)C(F)(F)C(F)(F)C(F)(F)C(F)(F)C(F)(F)C(F)(F)F)C(=O)O (stereo not drawn) [Example 1, CF3(CF2)7(CH2)10COOCH(COOH)CH2COOH]
◯: Solubility in Acetone | Solubility in Ethanol | Solubility in Toluene

CCCCCCCCCCCCCCCCCCC(CC(=O)OCCC(F)(F)C(F)(F)C(F)(F)C(F)(F)C(F)(F)C(F)(F)C(F)(F)C(F)(F)F)C(=O)OC(CC(=O)O)C(=O)O (stereo not drawn) [Example 4, CF3(CF2)7(CH2)2OCOCH2CH(C18H37)COOCH(COOH)CH2COOH]
◯: Solubility in Acetone | Solubility in Ethanol | Solubility in Toluene
